Test results from patent publication US3966744A, “Spin labeled compounds” (priority 1974, dated 1976).

Tested on: antibody (methadone assay)
Type: binding, rabbit
Details: 3.1 μg/ml

CCC(=O)C(CC(C)N(C)C)(c1ccccc1)c1ccccc1 (stereo not shown) [methadone]
% Mobilization: 44%
